Measurements reported in PubChem BioAssay AID504774 (Drosophila RNAi Screening Center, 2011)
Screen: 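Genes required for cells to withstand methyl methanesulphonate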 (primary screen). Cells: Drosophila Kc167 cells. Reagents: long dsRNA against Drosophila genes, about 0.25 µg dsRNA per well. Time to read-out: about 6 days: 3 days knock-down, then 3 days with or without MMS. Conditions: methyl methanesulphonate 0.004% (w/v) for 3 days after knock-down. Measurement: 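ATP-dependent luminescence as a measure of live cells in MMS-exposed wells, quantile normalised within each plate, with replicate values also given as a mean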. Direction: mean viability with MMS: higher = more surviving cells after MMS.
The deposit covers about 23,000 reagents; shown is a random part of those with a known target gene and a result. 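Values are quantile-normalised luminescence on an arbitrary scale; higher means more cells surviving MMS.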 The numbers tell different reagents against one gene apart. A plus sign joins genes that one reagent is predicted to hit. Further read-outs or replicates are left out here.

Gene	reagent no.	mean viability with MMS
wdn (wings down)	1	3.48e6
CG11113	1	3.54e6
ECSIT	1	3.58e6
Eip75B (Ecdysone-induced protein 75B)	1	3.26e6
Eip75B (Ecdysone-induced protein 75B)	2	3.46e6
l(2)03659 (lethal (2) 03659)	1	3.68e6
l(2)03659 (lethal (2) 03659)	2	3.65e6
CG11294	1	3.10e6
dop (drop out)	1	3.50e6
CG9231	1	3.51e6
CG11694	1	3.34e6
Tusp	1	3.54e6
Atg12 (Autophagy-related 12)	1	3.51e6
CG34256	1	3.63e6
CG11275	1	3.47e6
CG7335	1	3.61e6
rau	1	3.61e6
gsb-n (gooseberry-neuro)	1	3.53e6
gsb-n (gooseberry-neuro)	2	3.59e6
CG17742 (retired record)	1	2.92e6
Tango14 (Transport and Golgi organization 14)	1	3.56e6
CG1486	1	3.67e6
CG43999	1	3.62e6
CG8389	1	3.60e6
CG8389	2	3.56e6
CG11437	1	3.39e6
CG3744	1	3.92e6
CG6180	1	3.70e6
Obp83b (Odorant-binding protein 83b)	1	3.44e6
Ntan1 (N-terminal amidohydrolase 1)	1	3.61e6
CTCF	1	3.43e6
CG32548	1	3.48e6
CG32548	2	3.72e6
Prp40 (pre-mRNA processing factor 40)	1	3.31e6
CG31086 + CG31323	1	3.28e6
CG3078	1	3.34e6
CG17270	1	3.61e6
CG8646	1	3.40e6
Capr (Caprin)	1	3.60e6
CG34181	1	3.46e6
CG3640	1	3.47e6
btd (buttonhead)	1	3.40e6
CG6136	1	3.48e6
peo (pendolino)	1	3.65e6
COX5BL (Cytochrome c oxidase subunit 5B-like)	1	3.71e6
CG6785	1	3.56e6
Nplp1 (Neuropeptide-like precursor 1)	1	3.51e6
Atg18b (Autophagy-related 18b)	1	3.55e6
Tob (Transducer of ERBB2)	1	3.31e6
CG1888	1	3.54e6
brwl (brickwall)	1	3.10e6
brwl (brickwall)	2	3.56e6
CG9503	1	3.60e6
CG9503	2	3.44e6
HP1b (Heterochromatin Protein 1b)	1	3.46e6
raptor	1	3.14e6
CG31327	1	3.43e6
CG9171	1	3.69e6
CG9171	2	3.47e6
spz (spatzle)	1	3.61e6
klg (klingon)	1	3.46e6
klg (klingon)	2	3.49e6
CG34430	1	3.57e6
Elal (Elastin-like)	1	3.48e6
Keap1	1	3.78e6
amd (alpha methyl dopa-resistant)	1	3.64e6
amd (alpha methyl dopa-resistant)	2	3.53e6
Cap-H2 (Chromosome associated protein H2)	1	3.54e6

Look-ups from the list:
Value for HP1b (Heterochromatin Protein 1b) under “mean viability with MMS”: 3.46e6
Under “mean viability with MMS”, Tusp has 3.54e6
CG8389 #2, mean viability with MMS: 3.56e6
For “mean viability with MMS”, CG9231 is entered as 3.51e6
Atg18b (Autophagy-related 18b), mean viability with MMS → 3.55e6
Result of Prp40 (pre-mRNA processing factor 40) in “mean viability with MMS”: 3.31e6
